This series in a line: general procedure: Fmoc solid-phase peptide synthesis; trityl chloride resin (e.g. also 2-chlorotrityl chloride, Wang, Sasrin, HMPB); Rink amide, Pal, MBHA or Sieber for C-term. The following applies: conjugation step.

As to 2-(aminooxy)acetyl-FFRKKAVYNFATM, the conjugation yield is reported as 76% and the “final HPLC purity” value came to 94.0%.
For “4-pentynoyl-FFRKAVGALEGPRNQDWLGVPRQL (conjugated to alpha-GalCer; Synthetic Immunogen)” the same measures were 80% and 95.1%.
Turning to 4-pentynoyl-FFRKDLAQMFFCFKELEGW, the conjugation yield is given as 36% and the “final HPLC purity” value is 96.2%.
For “4-pentynoyl-FFRKKISQAVHAAHAEINEAGRESIINFEKL-TEWT”, the conjugation yield stood at 69% and the “final HPLC purity” value amounted to 97.6%.
As for 4-pentynoyl-FFRKNLVPMVATV, the conjugation yield is on record as 77% and the “final HPLC purity” value was 94.2%.
Regarding 4-pentynoyl-FFRKRAHYNIVTF, the conjugation yield is 56% and the “final HPLC purity” value is 96.7%.
For the substance 4-pentynoyl-FFRKSVYDFFVWLKFFHRTCKCTGNFA, the conjugation yield was 31% and the “final HPLC purity” value is 94.8%.
As for 4-pentynoyl-ILARNLVPMVATV, the conjugation yield is reported as 50% and the “final HPLC purity” value stood at 94.8%.
Consider 4-pentynoyl-SVYDFFVWLKFFHRTCKCTGNFA, for which the conjugation yield is 33% and the “final HPLC purity” value is 82%.

The values above are taken from US9764037B2 (Victoria Link Limited, priority 2012, dated 2017).
